Laboratory results: article PMC10787067, “EBF2 Links KMT2D‐Mediated H3K4me1 to Suppress Pancreatic Cancer Progression via Upregulating KLLN” (Advanced Science, 2023)
These are yes or no findings as the source states them, for the method shown. In cells and extracts the contact can be indirect. Here binding means that the protein was enriched with, or labelled near, the bait; the list need not be complete.

Target: H3K4me1 peptide (C-terminal biotin-tagged 19 amino acid N-terminal peptide of histone H3, mono-methylated on Lys 4) (UniProt P68431)
Assay: affinity purification with mass spectrometry; biotin-tagged H3 peptides incubated with nuclear extract of SW1990 cells, captured on streptavidin agarose, SDS-PAGE with silver staining, bands excised for electrospray-ion trap tandem mass spectrometry; only the target purified

| Binder | binding |
| --- | --- |
| CYR61 (protein, UniProt O00622 25-381) TCPAACHCPLEAPKCAPGVGLVRDGCGCCKVCAKQLNEDCSKTQPCDHTKGLECNFGASSTALKGICRAQSEGRPCEYNSRIYQNGESFQPNCKHQCTCIDGAVGCIPLCPQELSLPNLGCPNPRLVKVTGQCCEEWVCDEDSIKDPMEDQDGLLGKELGFDASEVELTRNNELIAVGKGSSLKRLPVFGMEPRILYNPLQGQKCIVQTTSWSQCSKTCGTGISTRVTNDNPECRLVKETRICEVRPCGQPVYSSLKKGKKCSKTKKSPEPVRFTYAGCLSVKKYRPKYCGSCVDGRCCTPQLTRTVKMRFRCEDGETFSKNVMMIQSCKCNYNCPHANEAAFPFYRLFNDIHKFRD | binds |
| TSPYL2 (protein, UniProt Q9H2G4 1-693) MDRPDEGPPAKTRRLSSSESPQRDPPPPPPPPPLLRLPLPPPQQRPRLQEETEAAQVLADMRGVGLGPALPPPPPYVILEEGGIRAYFTLGAECPGWDSTIESGYGEAPPPTESLEALPTPEASGGSLEIDFQVVQSSSFGGEGALETCSAVGWAPQRLVDPKSKEEAIIIVEDEDEDERESMRSSRRRRRRRRRKQRKVKRESRERNAERMESILQALEDIQLDLEAVNIKAGKAFLRLKRKFIQMRRPFLERRDLIIQHIPGFWVKAFLNHPRISILINRRDEDIFRYLTNLQVQDLRHISMGYKMKLYFQTNPYFTNMVIVKEFQRNRSGRLVSHSTPIRWHRGQEPQARRHGNQDASHSFFSWFSNHSLPEADRIAEIIKNDLWVNPLRYYLRERGSRIKRKKQEMKKRKTRGRCEVVIMEDAPDYYAVEDIFSEISDIDETIHDIKISDFMETTDYFETTDNEITDINENICDSENPDHNEVPNNETTDNNESADDHETTDNNESADDNNENPEDNNKNTDDNEENPNNNENTYGNNFFKGGFWGSHGNNQDSSDSDNEADEASDDEDNDGNEGDNEGSDDDGNEGDNEGSDDDDRDIEYYEKVIEDFDKDQADYEDVIEIISDESVEEEGIEEGIQQDEDIYEEGNYEEEGSEDVWEEGEDSDDSDLEDVLQVPNGWANPGKRGKTG | binds |

The next lines start with the values.

| binding | Binder |
| --- | --- |
| binds | CIRBP (protein, UniProt Q14011 1-172) MASDEGKLFVGGLSFDTNEQSLEQVFSKYGQISEVVVVKDRETQRSRGFGFVTFENIDDAKDAMMAMNGKSVDGRQIRVDQAGKSSDNRSRGYRGGSAGGRGFFRGGRGRGRGFSRGGGDRGYGGNRFESRSGGYGGSRDYYSSRSQSGGYSDRSSGGSYRDSYDSYATHNE |
| binds | TGFBR3 (protein, UniProt Q03167 21-851) GPEPGALCELSPVSASHPVQALMESFTVLSGCASRGTTGLPQEVHVLNLRTAGQGPGQLQREVTLHLNPISSVHIHHKSVVFLLNSPHPLVWHLKTERLATGVSRLFLVSEGSVVQFSSANFSLTAETEERNFPHGNEHLLNWARKEYGAVTSFTELKIARNIYIKVGEDQVFPPKCNIGKNFLSLNYLAEYLQPKAAEGCVMSSQPQNEEVHIIELITPNSNPYSAFQVDITIDIRPSQEDLEVVKNLILILKCKKSVNWVIKSFDVKGSLKIIAPNSIGFGKESERSMTMTKSIRDDIPSTQGNLVKWALDNGYSPITSYTMAPVANRFHLRLENNAEEMGDEEVHTIPPELRILLDPGALPALQNPPIRGGEGQNGGLPFPFPDISRRVWNEEGEDGLPRPKDPVIPSIQLFPGLREPEEVQGSVDIALSVKCDNEKMIVAVEKDSFQASGYSGMDVTLLDPTCKAKMNGTHFVLESPLNGCGTRPRWSALDGVVYYNSIVIQVPALGDSSGWPDGYEDLESGDNGFPGDMDEGDASLFTRPEIVVFNCSLQQVRNPSSFQEQPHGNITFNMELYNTDLFLVPSQGVFSVPENGHVYVEVSVTKAEQELGFAIQTCFISPYSNPDRMSHYTIIENICPKDESVKFYSPKRVHFPIPQADMDKKRFSFVFKPVFNTSLLFLQCELTLCTKMEKHPQKLPKCVPPDEACTSLDASIIWAMMQNKKTFTKPLAVIHHEAESKEKGPSMKEPNPISPPIFHGLDTLTVMGIAFAAFVIGALLTGALWYIYSHTGETAGRQQVPTSPPASENSSAAHSIGSTQSTPCSSSSTA |
